From patent publication US20240010754A1
No constants are given. Whether binding was seen depends on the method and setting. Some binding calls cover weakened binding; strength is not graded here.

Amino acid sequences for entries named in this document (tags omitted). Residues count along the entry.
UniProt P25942, residues 21-277: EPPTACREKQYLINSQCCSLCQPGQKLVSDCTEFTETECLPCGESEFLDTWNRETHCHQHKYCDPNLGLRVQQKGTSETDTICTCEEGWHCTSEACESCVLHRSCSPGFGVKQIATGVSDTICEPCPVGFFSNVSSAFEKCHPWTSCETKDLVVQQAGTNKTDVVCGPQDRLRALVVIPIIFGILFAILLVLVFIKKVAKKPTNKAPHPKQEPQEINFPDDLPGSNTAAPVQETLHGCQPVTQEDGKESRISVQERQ

Target: human CD40 (human) (UniProt P25942)
Test: FACS binding to HEK293/CD40 cells

B1: parent CD40 monoclonal antibody 9E5-25 (antibody, V domains shown)
VH: QVQLVQSGAEVKKPGASVKVSCKASGYILTTYWITWVRQAPGQGLEWMGDIHPGSGSTKYNEKFKSRVTLTVDTSISTAYMELSRLRSEDTAVYYCARRDYWGQGTTVTVSS
VL: DIVMTQSPLSLPVTPGEPASISCRSSQNIVNSQGNTYLEWYLQKPGQSPQLLIYKVTNRFSGVPDRFSGSGSGTDFTLKISRVEAEDVGVYYCFQASLVPWTFGGGTKVEIK
- binding: binds
